These results are taken from publication PMC12214830, “The human RIF1-Long isoform interacts with BRCA1 to promote recombinational fork repair under DNA replication stress” (Nature Communications, 2025).

Amino acid sequences for entries named in this document (tags omitted). Residues count along the entry.
UniProt P38398, residues 1646-1859: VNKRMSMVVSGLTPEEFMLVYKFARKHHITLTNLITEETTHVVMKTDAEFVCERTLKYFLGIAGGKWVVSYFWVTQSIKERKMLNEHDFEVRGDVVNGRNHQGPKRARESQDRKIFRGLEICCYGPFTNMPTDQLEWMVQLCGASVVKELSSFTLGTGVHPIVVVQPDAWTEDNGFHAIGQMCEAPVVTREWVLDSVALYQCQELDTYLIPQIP

In the assay the target is T1, Flu-BRIP1pS990 (fluorescein-labelled BRIP1 phospho-peptide).
T1 sequence (peptide, fluorescein on the N-terminus; phosphoserine at S990 (pS)): GYGIVISRSTSPTFNKQT
Description: fluorescence polarisation; 200 nM fluorescein-labelled peptide with increasing His6-SUMO-BRCT2 protein; room temperature; 25 mM HEPES pH 7.5, 200 mM NaCl, 1 mM EDTA, 0.25 mM TCEP, 0.02% Tween-20; one site-specific binding fit; Lambda phosphatase with 1 mM MnCl2 to remove the phosphate; both …. For orientation: In fluorescence polarisation assays a small probe gives low polarisation when free and higher when bound to something large.

These are yes or no findings as the source states them, for the method shown. Some results given as binding are weak or reduced against the parent protein; the word gives no strength.

With “His6-SUMO-BRCA1-BRCT2 (tandem BRCT domains of BRCA1, tag kept) (from UniProt P38398 1646-1859) (domain or fragment)”, the binding entry is “binds”.
